Data taken from the supplement of paper PMC11006884.
The list shows a part of the results, in another mix than the full data.

Protein sequences, listed by entry. Tags and fused reporters are not part of them. Lines headed by an entry give the natural chain unless they say otherwise; changes in a name come on top.
UniProt Q9BZE9, whole entry, looked up: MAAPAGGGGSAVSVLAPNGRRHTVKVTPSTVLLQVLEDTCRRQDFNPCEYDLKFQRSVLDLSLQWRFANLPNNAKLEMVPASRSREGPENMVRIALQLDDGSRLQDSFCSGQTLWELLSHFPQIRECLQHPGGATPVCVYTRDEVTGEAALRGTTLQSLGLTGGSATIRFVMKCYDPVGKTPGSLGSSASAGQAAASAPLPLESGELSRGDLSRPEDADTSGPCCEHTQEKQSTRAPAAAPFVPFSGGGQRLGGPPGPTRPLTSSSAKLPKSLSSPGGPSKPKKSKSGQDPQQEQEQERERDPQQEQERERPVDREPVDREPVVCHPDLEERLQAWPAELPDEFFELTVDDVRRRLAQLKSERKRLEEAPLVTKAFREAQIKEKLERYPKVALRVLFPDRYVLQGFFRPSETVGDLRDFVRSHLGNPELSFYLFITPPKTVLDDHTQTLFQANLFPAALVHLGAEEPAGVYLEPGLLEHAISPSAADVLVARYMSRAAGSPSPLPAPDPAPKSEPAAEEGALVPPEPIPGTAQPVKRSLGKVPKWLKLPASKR
UniProt Q9BWD1: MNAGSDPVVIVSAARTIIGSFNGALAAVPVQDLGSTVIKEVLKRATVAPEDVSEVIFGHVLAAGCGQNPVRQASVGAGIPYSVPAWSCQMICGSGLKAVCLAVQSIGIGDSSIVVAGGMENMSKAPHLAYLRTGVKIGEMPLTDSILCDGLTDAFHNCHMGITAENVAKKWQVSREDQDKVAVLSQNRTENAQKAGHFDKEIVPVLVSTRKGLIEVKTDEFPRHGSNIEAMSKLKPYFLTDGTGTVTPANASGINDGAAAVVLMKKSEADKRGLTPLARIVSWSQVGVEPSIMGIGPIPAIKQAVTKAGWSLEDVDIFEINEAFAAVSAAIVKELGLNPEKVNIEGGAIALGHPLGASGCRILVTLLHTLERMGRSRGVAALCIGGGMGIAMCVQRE
UniProt Q9C0C2: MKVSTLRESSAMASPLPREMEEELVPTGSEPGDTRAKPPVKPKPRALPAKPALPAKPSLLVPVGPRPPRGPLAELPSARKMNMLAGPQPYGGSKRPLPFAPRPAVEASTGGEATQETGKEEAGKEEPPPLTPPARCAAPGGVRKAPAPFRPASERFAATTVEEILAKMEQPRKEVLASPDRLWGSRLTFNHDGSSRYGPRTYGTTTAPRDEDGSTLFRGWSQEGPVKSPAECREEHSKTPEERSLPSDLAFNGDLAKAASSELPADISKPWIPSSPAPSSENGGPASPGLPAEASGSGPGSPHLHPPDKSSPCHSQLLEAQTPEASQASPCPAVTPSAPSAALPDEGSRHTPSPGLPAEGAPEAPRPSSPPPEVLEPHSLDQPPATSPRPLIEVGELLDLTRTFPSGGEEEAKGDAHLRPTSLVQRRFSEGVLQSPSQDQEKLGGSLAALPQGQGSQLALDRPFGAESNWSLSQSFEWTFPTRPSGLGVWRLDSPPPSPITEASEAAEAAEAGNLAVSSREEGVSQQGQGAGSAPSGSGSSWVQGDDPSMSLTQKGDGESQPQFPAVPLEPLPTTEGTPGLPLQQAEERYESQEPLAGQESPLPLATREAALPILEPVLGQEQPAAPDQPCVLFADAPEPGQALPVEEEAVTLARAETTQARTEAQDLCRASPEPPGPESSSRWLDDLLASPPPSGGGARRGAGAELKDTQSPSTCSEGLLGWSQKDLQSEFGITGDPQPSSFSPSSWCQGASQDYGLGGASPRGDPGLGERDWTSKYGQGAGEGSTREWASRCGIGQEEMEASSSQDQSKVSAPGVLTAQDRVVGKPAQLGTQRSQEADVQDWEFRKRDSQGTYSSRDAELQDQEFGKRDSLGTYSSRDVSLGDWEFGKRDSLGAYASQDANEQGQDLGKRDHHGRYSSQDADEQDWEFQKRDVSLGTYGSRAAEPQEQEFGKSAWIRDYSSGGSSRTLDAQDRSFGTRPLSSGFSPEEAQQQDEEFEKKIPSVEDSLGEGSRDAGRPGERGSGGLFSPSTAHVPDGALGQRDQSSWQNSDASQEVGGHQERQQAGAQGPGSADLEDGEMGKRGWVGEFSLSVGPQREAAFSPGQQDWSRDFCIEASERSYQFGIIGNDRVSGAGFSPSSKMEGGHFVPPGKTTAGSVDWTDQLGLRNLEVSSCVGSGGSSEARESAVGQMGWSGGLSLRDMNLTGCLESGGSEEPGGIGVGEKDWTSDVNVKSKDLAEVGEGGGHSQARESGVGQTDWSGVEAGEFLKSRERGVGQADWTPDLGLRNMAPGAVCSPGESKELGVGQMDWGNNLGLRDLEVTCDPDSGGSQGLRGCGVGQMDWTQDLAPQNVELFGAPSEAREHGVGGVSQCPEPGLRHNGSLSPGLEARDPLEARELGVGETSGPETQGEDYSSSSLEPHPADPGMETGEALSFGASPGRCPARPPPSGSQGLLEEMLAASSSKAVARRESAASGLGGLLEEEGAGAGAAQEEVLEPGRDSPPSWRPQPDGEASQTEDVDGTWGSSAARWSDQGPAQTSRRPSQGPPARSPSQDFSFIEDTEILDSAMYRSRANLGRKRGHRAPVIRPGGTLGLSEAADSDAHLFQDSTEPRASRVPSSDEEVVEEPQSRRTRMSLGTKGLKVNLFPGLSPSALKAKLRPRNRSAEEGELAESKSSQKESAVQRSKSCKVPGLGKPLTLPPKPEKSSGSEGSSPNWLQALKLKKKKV
UniProt Q9BSE4: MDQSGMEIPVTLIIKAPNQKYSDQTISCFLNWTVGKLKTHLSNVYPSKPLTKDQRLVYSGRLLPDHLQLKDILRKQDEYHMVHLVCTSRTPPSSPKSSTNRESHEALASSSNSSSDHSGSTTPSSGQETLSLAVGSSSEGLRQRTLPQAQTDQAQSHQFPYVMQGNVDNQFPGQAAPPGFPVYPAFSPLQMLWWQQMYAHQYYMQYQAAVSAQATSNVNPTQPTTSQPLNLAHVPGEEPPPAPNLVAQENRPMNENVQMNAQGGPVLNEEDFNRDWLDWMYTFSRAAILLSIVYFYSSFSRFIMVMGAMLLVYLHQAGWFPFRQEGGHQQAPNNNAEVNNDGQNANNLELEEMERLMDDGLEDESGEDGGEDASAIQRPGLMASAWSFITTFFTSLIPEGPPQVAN
UniProt Q9GZN1, whole entry, looked up: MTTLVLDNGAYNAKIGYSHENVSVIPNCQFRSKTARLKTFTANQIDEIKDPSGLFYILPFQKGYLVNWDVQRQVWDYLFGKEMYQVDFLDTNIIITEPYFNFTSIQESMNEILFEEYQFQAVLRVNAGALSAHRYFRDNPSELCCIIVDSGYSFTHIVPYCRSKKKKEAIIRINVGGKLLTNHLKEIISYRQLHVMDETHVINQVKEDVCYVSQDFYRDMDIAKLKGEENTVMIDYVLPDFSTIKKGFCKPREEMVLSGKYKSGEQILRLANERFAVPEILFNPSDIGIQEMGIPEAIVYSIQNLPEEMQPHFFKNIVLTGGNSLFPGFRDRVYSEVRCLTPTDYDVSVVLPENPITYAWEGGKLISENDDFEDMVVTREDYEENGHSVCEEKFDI
UniProt Q9BU23: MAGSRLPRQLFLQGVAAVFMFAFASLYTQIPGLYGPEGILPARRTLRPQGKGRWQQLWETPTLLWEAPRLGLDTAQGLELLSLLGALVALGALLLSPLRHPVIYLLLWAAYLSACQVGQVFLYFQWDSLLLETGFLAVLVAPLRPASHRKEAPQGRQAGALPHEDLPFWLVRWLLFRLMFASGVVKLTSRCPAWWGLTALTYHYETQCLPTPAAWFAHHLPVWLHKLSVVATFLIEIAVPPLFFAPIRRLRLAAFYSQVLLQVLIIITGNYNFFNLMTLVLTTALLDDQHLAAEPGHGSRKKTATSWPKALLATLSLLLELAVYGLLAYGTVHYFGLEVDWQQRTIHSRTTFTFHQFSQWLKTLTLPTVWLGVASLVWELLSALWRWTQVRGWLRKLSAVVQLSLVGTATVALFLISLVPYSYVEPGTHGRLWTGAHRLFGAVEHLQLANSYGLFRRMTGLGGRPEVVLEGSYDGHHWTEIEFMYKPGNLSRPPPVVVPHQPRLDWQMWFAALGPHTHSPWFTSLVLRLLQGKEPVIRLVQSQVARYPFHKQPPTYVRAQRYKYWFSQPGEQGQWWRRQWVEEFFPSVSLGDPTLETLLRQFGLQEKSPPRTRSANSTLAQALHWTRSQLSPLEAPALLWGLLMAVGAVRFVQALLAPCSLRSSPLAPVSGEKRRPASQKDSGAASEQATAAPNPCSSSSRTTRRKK
UniProt Q9BTC0, whole entry, looked up: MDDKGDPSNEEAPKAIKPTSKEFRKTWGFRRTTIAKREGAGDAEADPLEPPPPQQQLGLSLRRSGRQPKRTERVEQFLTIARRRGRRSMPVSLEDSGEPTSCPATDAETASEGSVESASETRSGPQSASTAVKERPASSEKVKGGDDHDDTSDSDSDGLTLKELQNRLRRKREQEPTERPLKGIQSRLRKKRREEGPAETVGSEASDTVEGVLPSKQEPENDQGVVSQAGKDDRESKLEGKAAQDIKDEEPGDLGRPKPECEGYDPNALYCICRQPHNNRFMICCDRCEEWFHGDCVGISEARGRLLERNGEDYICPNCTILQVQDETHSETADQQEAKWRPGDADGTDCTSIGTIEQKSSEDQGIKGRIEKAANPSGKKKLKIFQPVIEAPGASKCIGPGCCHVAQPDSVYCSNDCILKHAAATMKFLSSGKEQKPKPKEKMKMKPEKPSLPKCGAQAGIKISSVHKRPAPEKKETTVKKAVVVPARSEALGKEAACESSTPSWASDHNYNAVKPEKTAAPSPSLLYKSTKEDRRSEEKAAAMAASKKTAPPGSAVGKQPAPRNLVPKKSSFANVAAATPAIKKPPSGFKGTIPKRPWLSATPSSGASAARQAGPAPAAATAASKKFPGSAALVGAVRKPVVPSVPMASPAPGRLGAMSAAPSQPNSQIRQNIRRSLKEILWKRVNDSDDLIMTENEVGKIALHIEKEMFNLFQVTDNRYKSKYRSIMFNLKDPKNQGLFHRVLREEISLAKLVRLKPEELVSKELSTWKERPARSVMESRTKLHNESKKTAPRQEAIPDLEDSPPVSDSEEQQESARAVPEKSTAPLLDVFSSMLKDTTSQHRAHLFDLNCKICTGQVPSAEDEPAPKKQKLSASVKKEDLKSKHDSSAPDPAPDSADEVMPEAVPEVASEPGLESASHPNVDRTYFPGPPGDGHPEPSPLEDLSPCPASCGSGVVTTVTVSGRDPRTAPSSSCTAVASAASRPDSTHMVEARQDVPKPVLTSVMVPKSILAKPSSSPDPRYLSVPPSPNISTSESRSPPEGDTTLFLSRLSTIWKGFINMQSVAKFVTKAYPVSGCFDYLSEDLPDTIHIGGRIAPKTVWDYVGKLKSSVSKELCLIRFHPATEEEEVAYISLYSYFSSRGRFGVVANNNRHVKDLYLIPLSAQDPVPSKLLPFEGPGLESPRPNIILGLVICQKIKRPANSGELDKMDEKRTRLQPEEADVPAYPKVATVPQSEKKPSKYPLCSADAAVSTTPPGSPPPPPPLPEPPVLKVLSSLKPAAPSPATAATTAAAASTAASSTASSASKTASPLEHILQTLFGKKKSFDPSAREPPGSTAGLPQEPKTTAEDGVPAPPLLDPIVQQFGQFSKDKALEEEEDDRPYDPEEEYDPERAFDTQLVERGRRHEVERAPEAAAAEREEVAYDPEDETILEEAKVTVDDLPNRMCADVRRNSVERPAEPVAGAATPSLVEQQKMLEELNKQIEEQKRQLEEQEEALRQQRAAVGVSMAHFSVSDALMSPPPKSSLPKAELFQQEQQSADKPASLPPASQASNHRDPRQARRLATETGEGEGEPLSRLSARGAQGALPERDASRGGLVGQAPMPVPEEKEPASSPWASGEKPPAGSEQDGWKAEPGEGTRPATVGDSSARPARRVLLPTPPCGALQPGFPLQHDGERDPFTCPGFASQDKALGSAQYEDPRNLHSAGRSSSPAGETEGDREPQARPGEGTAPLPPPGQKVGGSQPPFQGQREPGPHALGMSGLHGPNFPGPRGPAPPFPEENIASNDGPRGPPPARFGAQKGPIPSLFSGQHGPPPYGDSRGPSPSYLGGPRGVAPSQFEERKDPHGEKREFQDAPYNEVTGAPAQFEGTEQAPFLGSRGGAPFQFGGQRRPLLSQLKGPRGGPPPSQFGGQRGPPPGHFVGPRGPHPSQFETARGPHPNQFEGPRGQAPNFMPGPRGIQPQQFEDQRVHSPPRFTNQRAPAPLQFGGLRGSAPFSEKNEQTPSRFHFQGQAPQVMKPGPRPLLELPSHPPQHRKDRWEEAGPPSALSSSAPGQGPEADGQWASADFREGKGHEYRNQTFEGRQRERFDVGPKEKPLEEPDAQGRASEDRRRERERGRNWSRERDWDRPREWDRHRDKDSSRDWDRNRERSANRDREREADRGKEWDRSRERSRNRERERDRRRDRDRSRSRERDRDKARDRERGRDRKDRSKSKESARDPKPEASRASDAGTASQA
UniProt Q9BZL1: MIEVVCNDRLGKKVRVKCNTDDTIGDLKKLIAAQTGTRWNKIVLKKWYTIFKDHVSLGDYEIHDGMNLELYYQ

Compound: COC(=O)C#Cc1ccccc1 [methyl 3-phenylpropiolate]
Assay: log2 ratio of iodoacetamide-alkyne labeling of the cysteine site, DMSO over compound (competition); higher = stronger covalent engagement of the cysteine by the compound, active = 1 or more
Conditions: 500 µM; treatment time 1 h; system: HEK293T cell lysate
Method in brief: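 HEK293T lysate (2 mg/mL) was incubated with electrophile (500 µM) or vehicle for 1 h at ambient temperature and then with iodoacetamide alkyne for 1 h. Labelled proteins were clicked to sCIP-TMT reagents, pooled, digested, enriched on streptavidin and measured by Orbitrap Eclipse LC-MS/MS with FAIMS, with FragPipe quantification. The per-cysteine log2 competition ratio is mean control-channel reporter intensity over mean compound-channel reporter intensity. Across three replicates with duplicate channels, cysteines quantified in only one replicate were excluded.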

Target	log2 ratio of iodoacetamide-alkyne labeling
UniProt Q9BWW4_C80	inactive: 0.318
HDHD3 C196 (UniProt Q9BSH5)	inactive: 0.144
VPS11 C890 (UniProt Q9H270)	inactive: 0.265
ASPSCR1 C225 (UniProt Q9BZE9)	active: 1.02
ACAT2 C148 (UniProt Q9BWD1)	inactive: -0.138
TNKS1BP1 C1337 (UniProt Q9C0C2)	active: 1.01
ZYG11B C643 (UniProt Q9C0D3)	inactive: 0.222
NOC4L C509 (UniProt Q9BVI4)	inactive: 0.396
HERPUD2 C28 (UniProt Q9BSE4)	inactive: 0.331
TARS2 C185 (UniProt Q9BW92)	inactive: 0.0276
SPATA5L1 C78 (UniProt Q9BVQ7)	inactive: 0.204
C2orf49 C10 (UniProt Q9BVC5)	inactive: 0.299
SLK C1212 (UniProt Q9H2G2)	inactive: 0.366
HNRNPUL1 C391 (UniProt Q9BUJ2)	inactive: 0.248
MYBBP1A C968 (UniProt Q9BQG0)	inactive: 0.274
ACAT2 C92 (UniProt Q9BWD1)	inactive: -0.0698
DESI2 C108 (UniProt Q9BSY9)	inactive: -0.125
ACTR6 C28 (UniProt Q9GZN1)	inactive: 0.277
ASPSCR1 C174 (UniProt Q9BZE9)	inactive: 0.164

At a glance, part of the list above:
Target	log2 ratio of iodoacetamide-alkyne labeling
ACAT2 C92 (UniProt Q9BWD1)	inactive: -0.0698
DESI2 C108 (UniProt Q9BSY9)	inactive: -0.125

Further results.

Target	log2 ratio of iodoacetamide-alkyne labeling
RPAP1 C84 (UniProt Q9BWH6)	inactive: 0.242
REXO4 C382 (UniProt Q9GZR2)	active: 1.23
FYCO1 C318 (UniProt Q9BQS8)	inactive: 0.119
NAT10 C486 (UniProt Q9H0A0)	inactive: 0.0616
LMF2 C696 (UniProt Q9BU23)	inactive: 0.735
TNKS1BP1 C794 (UniProt Q9C0C2)	inactive: 0.704
UBE2O C244 (UniProt Q9C0C9)	inactive: 0.18
NUDT9 C347 (UniProt Q9BW91)	inactive: 0.139
POLDIP3 C303 (UniProt Q9BY77)	inactive: -0.174
DIDO1 C498 (UniProt Q9BTC0)	inactive: 0.348
PELO C204 (UniProt Q9BRX2)	inactive: -0.0708
UniProt Q9BZL1_C6	inactive: 0.0596
UniProt Q9BXJ9_C214	inactive: 0.2
NSD3 C173 (UniProt Q9BZ95)	inactive: 0.233
UTP14A C522 (UniProt Q9BVJ6)	inactive: 0.365
TNKS1BP1 C631 (UniProt Q9C0C2)	inactive: 0.0951
POLDIP3 C346 (UniProt Q9BY77)	inactive: -0.152
GNL3 C131 (UniProt Q9BVP2)	inactive: 0.225
